From patent US20180320217A1, “METHODS FOR SAMPLING AND MEASURING ORAL LAVAGE PROTEINS” (The Procter & Gamble Company, priority 2017, published 2018) come the findings set out here.

First the molecules themselves.
B1: HERV-H LTR-associating protein 2 (protein, UniProt Q9UM44 23-414, looked up)
HERV-H LTR-associating …: IFPLAFFIYVPMNEQIVIGRLDEDIILPSSFERGSEVVIHWKYQDSYKVHSYYKGSDHLESQDPRYANRTSLFYNEIQNGNASLFFRRVSLLDEGIYTCYVGTAIQVITNKVVLKVGVFLTPVMKYEKRNTNSFLICSVLSVYPRPIITWKMDNTPISENNMEETGSLDSFSINSPLNITGSNSSYECTIENSLLKQTWTGRWTMKDGLHKMQSEHVSLSCQPVNDYFSPNQDFKVTWSRMKSGTFSVLAYYLSSSQNTIINESRFSWNKELINQSDFSMNLMDLNLSDSGEYLCNISSDEYTLLTIHTVHVEPSQETASHNKGLWILVPSAILAAFLLIWSVKCCRAQLEARRSRHPADGAQQERCCVPPGERCPSAPDNGEENVPLSGKV
B2: ICOS ligand (protein, UniProt O75144 19-302, looked up)
ICOS ligand: DTQEKEVRAMVGSDVELSCACPEGSRFDLNDVYVYWQTSESKTVVTYHIPQNSSLENVDSRYRNRALMSPAGMLRGDFSLRLFNVTPQDEQKFHCLVLSQSLGFQEVLSVEVTLHVAANFSVPVVSAPHSPSQDELTFTCTSINGYPRPNVYWINKTDNSLLDQALQNDTVFLNMRGLYDVVSVLRIARTPSVNIGCCIENVLLQQNLTVGSQTGNDIGERDKITENPVSTGEKNAATWSILAVLCLLVVVAVAIGWVCRDRCLQHSYAGAWAVSPETELTGHV
B3: Hepatocyte growth factor-like protein (protein, UniProt P26927 19-711, looked up)
Hepatocyte growth factor-like …: QRSPLNDFQVLRGTELQHLLHAVVPGPWQEDVADAEECAGRCGPLMDCRAFHYNVSSHGCQLLPWTQHSPHTRLRRSGRCDLFQKKDYVRTCIMNNGVGYRGTMATTVGGLPCQAWSHKFPNDHKYTPTLRNGLEENFCRNPDGDPGGPWCYTTDPAVRFQSCGIKSCREAACVWCNGEEYRGAVDRTESGRECQRWDLQHPHQHPFEPGKFLDQGLDDNYCRNPDGSERPWCYTTDPQIEREFCDLPRCGSEAQPRQEATTVSCFRGKGEGYRGTANTTTAGVPCQRWDAQIPHQHRFTPEKYACKDLRENFCRNPDGSEAPWCFTLRPGMRAAFCYQIRRCTDDVRPQDCYHGAGEQYRGTVSKTRKGVQCQRWSAETPHKPQFTFTSEPHAQLEENFCRNPDGDSHGPWCYTMDPRTPFDYCALRRCADDQPPSILDPPDQVQFEKCGKRVDRLDQRRSKLRVVGGHPGNSPWTVSLRNRQGQHFCGGSLVKEQWILTARQCFSSCHMPLTGYEVWLGTLFQNPQHGEPSLQRVPVAKMVCGPSGSQLVLLKLERSVTLNQRVALICLPPEWYVVPPGTKCEIAGWGETKGTGNDTVLNVALLNVISNQECNIKHRGRVRESEMCTEGLLAPVGACEGDYGGPLACFTHNCWVLEGIIIPNRVCARSRWPAVFTRVSVFVDWIHKVMRLG
B4: Iduronate 2-sulfatase (protein, UniProt P22304 34-455; P22304 456-550, looked up)
Iduronate 2-sulfatase 42 kDa …: TDALNVLLIIVDDLRPSLGCYGDKLVRSPNIDQLASHSLLFQNAFAQQAVCAPSRVSFLTGRRPDTTRLYDFNSYWRVHAGNFSTIPQYFKENGYVTMSVGKVFHPGISSNHTDDSPYSWSFPPYHPSSEKYENTKTCRGPDGELHANLLCPVDVLDVPEGTLPDKQSTEQAIQLLEKMKTSASPFFLAVGYHKPHIPFRYPKEFQKLYPLENITLAPDPEVPDGLPPVAYNPWMDIRQREDVQALNISVPYGPIPVDFQRKIRQSYFASVSYLDTQVGRLLSALDDLQLANSTIIAFTSDHGWALGEHGEWAKYSNFDVATHVPLIFYVPGRTASLPEAGEKLFPYLDPFDSASQLMEPGRQSMDLVELVSLFPTLAGLAGLQVPPRCPVPSFHVELCREGKNLLKHFRFRDLEEDPYLPG
Iduronate 2-sulfatase 14 kDa …: NPRELIAYSQYPRPSDIPQWNSDKPSLKDIKIMGYSIRTIDYRYTVWVGFNPDEFLANFSDIHAGELYFVDSDPLQDHNMYNDSQGGDLFQLLMP
B5: Histone-lysine N-methyltransferase EHMT2 (protein, UniProt Q96KQ7 2-1210, looked up)
Histone-lysine …: AAAAGAAAAAAAEGEAPAEMGALLLEKETRGATERVHGSLGDTPRSEETLPKATPDSLEPAGPSSPASVTVTVGDEGADTPVGATPLIGDESENLEGDGDLRGGRILLGHATKSFPSSPSKGGSCPSRAKMSMTGAGKSPPSVQSLAMRLLSMPGAQGAAAAGSEPPPATTSPEGQPKVHRARKTMSKPGNGQPPVPEKRPPEIQHFRMSDDVHSLGKVTSDLAKRRKLNSGGGLSEELGSARRSGEVTLTKGDPGSLEEWETVVGDDFSLYYDSYSVDERVDSDSKSEVEALTEQLSEEEEEEEEEEEEEEEEEEEEEEEEDEESGNQSDRSGSSGRRKAKKKWRKDSPWVKPSRKRRKREPPRAKEPRGVNGVGSSGPSEYMEVPLGSLELPSEGTLSPNHAGVSNDTSSLETERGFEELPLCSCRMEAPKIDRISERAGHKCMATESVDGELSGCNAAILKRETMRPSSRVALMVLCETHRARMVKHHCCPGCGYFCTAGTFLECHPDFRVAHRFHKACVSQLNGMVFCPHCGEDASEAQEVTIPRGDGVTPPAGTAAPAPPPLSQDVPGRADTSQPSARMRGHGEPRRPPCDPLADTIDSSGPSLTLPNGGCLSAVGLPLGPGREALEKALVIQESERRKKLRFHPRQLYLSVKQGELQKVILMLLDNLDPNFQSDQQSKRTPLHAAAQKGSVEICHVLLQAGANINAVDKQQRTPLMEAVVNNHLEVARYMVQRGGCVYSKEEDGSTCLHHAAKIGNLEMVSLLLSTGQVDVNAQDSGGWTPIIWAAEHKHIEVIRMLLTRGADVTLTDNEENICLHWASFTGSAAIAEVLLNARCDLHAVNYHGDTPLHIAARESYHDCVLLFLSRGANPELRNKEGDTAWDLTPERSDVWFALQLNRKLRLGVGNRAIRTEKIICRDVARGYENVPIPCVNGVDGEPCPEDYKYISENCETSTMNIDRNITHLQHCTCVDDCSSSNCLCGQLSIRCWYDKDGRLLQEFNKIEPPLIFECNQACSCWRNCKNRVVQSGIKVRLQLYRTAKMGWGVRALQTIPQGTFICEYVGELISDAEADVREDDSYLFDLDNKDGEVYCIDARYYGNISRFINHLCDPNIIPVRVFMLHQDLRFPRIAFFSSRDIRTGEELGFDYGDRFWDIKSKYFTCQCGSEKCKHSAEAIALEQSRLARLDPHPELLPELGSLPPVNT

In one series the test system is proteins in oral lavage. In words: Abundance of proteins in human oral lavage (SomaLogic), TABLE 1. The format is in vivo. The settings on record: abundance in oral lavage; high bleeders (gingivitis), baseline.
Regarding B1, the “Means (Original Scale) High bleeder BL” value is 1034.
Turning to B2, the “Means (Original Scale) High bleeder BL” value was 80395.
As to B3, the “Means (Original Scale) High bleeder BL” value is recorded as 2399.
For the molecule B4, the “Means (Original Scale) High bleeder BL” value was 1631.
Same read-out and setting: for B5 the value was 224.

Staying with this series, now noted: abundance in oral lavage; high bleeders, week 4 of investigative products.
For B1, the “Means (Original Scale) High bleeder W4” value is on record as 623.
As to B2, the “Means (Original Scale) High bleeder W4” value came to 51085.
Same read-out and setting: as for B3, the figure is 580; as for B4, 1106.

The same series, now with this note: abundance in oral lavage; low bleeders (healthy), baseline.
With B1, the “Means (Original Scale) Low bleeder BL” value was found to be 226.
With B2, the “Means (Original Scale) Low bleeder BL” value worked out at 13720.
On the same count and under the same terms, as for B3, the figure is 131.
Take B4: the “Means (Original Scale) Low bleeder BL” value is on record as 738.
Still for that read-out and setting: as for B5, the figure is 79.

Staying with this series, now noted: in vivo, po.
As for B5, the “Fold Change High bleeder W4 vs High bleeder BL” value (“Fold Change High bleeder W4” below) is recorded as 0.72 and the “Means (Original Scale) High bleeder W4” value was 154.

Still in this series, the particulars now being: oral lavage; high bleeders vs low bleeders at baseline.
As to B1, the “Fold Change High bleeder BL vs Low bleeder BL” value (“Fold Change High bleeder BL” for short) is recorded as 4.01.
Turning to B2, the “Fold Change High bleeder BL” value amounted to 5.66.
For B3, the “Fold Change High bleeder BL” value is recorded as 9.38.
Turning to B4, the “Fold Change High bleeder BL” value is listed as 2.21.
Take B5: the “Fold Change High bleeder BL” value amounted to 2.52.

Staying with this series, now noted: oral lavage; week 4 of investigative products vs baseline, high bleeders.
Regarding B1, the “Fold Change High bleeder W4” value was 0.64.
The same measure, in the same setting: as for B2, the figure is 0.73; as for B3, 0.61.
As for B4, the “Fold Change High bleeder W4” value was found to be 0.70.
